Some of the results follow.
What follows are targets tested with c1cn2cc(-c3ccc4cn[nH]c4c3)nc(Nc3ccc(N4CCOCC4)cc3)c2n1 [entospletinib] (assay: log2 fold change, soluble protein after heating vs DMSO (PISA); higher = thermal stabilisation; K562 cells, 10 uM, 30 min; active = over 0.2 and 3.5 SD of the protein, either way, in both replicates (recomputed)).
How it was run: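 For each measurement, 10 μM compound was applied for 30 min to K562 cells at 2×10^6 cells/mL. Aliquots were heated for 3 min across 48°C-58°C, pooled, and extracted in PBS with 0.5% NP-40 at 4°C; the supernatant after 21,000xg for 90 min was soluble protein. This was quantified by TMTpro 16plex LC-MS/MS with channel sums equalised, and thermal stability was reported relative to control samples from duplicates, on a log2 fold-change scale.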

Chains of the proteins cited; added tags and fusions are not shown. Lines headed by an entry give the natural chain unless they say otherwise; changes in a name come on top.
UniProt P50995, whole entry, looked up: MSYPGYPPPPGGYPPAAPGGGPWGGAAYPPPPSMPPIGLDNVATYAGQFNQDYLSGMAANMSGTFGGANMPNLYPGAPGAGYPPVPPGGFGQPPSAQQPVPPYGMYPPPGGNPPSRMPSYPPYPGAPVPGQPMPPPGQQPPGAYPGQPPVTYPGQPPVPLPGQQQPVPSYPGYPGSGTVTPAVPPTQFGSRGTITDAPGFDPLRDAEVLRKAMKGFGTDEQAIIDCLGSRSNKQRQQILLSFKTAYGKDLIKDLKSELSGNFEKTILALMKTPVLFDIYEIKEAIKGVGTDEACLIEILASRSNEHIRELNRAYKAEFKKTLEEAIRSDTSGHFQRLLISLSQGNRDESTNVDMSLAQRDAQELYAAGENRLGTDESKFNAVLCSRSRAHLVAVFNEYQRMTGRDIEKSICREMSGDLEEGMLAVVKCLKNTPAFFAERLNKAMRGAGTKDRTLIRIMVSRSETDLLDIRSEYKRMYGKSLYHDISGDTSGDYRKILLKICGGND
UniProt Q9HDC9: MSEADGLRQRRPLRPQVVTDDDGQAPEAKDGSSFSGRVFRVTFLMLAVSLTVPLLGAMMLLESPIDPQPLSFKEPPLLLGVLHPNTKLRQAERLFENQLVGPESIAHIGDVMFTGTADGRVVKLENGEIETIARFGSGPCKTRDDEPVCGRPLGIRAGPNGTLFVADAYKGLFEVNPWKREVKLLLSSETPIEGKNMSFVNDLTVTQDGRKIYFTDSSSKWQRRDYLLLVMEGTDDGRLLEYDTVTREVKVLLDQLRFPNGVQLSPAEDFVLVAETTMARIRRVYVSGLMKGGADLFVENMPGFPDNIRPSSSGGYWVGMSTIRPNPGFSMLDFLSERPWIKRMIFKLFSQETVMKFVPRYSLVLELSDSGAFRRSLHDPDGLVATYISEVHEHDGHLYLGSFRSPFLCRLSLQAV
UniProt Q92688: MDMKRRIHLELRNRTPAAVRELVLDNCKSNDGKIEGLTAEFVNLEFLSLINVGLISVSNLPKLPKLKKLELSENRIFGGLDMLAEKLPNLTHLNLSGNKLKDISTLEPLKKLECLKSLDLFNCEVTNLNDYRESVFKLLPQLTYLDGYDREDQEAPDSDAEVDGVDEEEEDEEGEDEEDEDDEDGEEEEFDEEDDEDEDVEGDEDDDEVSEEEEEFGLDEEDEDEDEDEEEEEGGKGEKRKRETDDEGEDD
UniProt P13798: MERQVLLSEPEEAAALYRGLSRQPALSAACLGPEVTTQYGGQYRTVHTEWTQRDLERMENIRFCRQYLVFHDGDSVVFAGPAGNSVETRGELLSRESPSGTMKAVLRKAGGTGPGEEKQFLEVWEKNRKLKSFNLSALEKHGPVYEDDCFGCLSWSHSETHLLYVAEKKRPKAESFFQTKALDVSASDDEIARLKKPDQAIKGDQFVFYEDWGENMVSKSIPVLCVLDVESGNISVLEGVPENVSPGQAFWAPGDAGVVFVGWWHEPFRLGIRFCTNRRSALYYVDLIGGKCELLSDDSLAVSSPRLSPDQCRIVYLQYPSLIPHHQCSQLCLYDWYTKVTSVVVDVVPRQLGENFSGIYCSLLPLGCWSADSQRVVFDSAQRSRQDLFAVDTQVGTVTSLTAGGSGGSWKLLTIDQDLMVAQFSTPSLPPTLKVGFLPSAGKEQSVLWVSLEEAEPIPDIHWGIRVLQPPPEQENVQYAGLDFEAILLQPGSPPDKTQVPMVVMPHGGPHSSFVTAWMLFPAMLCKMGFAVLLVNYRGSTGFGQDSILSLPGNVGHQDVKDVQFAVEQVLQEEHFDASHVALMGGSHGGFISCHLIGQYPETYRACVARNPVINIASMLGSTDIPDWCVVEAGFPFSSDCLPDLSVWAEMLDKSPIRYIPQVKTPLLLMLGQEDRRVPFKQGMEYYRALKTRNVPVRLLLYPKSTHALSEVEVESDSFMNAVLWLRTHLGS
UniProt Q96GX9: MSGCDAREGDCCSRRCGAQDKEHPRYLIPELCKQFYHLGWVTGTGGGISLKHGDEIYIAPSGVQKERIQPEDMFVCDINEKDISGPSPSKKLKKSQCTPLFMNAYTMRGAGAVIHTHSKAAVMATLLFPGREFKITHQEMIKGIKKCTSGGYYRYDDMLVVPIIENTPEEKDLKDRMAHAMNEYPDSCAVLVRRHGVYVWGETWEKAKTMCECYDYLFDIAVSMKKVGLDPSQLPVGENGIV
UniProt Q8WVL7: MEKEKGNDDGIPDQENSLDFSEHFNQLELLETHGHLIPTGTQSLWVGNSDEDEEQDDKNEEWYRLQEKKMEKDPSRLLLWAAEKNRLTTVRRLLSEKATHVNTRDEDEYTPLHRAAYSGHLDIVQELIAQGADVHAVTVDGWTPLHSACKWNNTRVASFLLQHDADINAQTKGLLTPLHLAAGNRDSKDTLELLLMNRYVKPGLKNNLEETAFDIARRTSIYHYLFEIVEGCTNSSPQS
UniProt P78540: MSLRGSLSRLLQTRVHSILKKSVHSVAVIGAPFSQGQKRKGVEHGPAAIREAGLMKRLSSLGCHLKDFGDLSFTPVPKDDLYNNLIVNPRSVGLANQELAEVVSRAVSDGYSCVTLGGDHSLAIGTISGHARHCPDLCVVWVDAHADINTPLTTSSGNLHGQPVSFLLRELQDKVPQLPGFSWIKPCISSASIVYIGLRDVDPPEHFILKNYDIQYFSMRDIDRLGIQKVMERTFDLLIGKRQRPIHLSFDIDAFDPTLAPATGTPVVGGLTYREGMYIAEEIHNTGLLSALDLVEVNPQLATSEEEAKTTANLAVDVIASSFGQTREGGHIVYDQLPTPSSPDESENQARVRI
UniProt P20073: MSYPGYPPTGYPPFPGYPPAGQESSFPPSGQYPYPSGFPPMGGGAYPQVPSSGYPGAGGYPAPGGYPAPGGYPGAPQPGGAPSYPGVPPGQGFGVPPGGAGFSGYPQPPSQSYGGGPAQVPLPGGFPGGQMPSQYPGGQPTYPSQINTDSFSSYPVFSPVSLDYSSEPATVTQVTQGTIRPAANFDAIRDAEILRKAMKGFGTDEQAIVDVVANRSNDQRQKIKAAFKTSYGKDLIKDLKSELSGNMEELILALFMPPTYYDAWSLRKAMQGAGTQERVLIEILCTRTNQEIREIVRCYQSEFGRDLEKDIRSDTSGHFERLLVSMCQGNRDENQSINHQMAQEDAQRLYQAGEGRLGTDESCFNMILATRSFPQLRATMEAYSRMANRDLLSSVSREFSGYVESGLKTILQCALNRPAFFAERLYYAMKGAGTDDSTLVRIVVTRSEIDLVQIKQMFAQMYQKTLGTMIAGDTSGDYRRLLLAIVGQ
UniProt Q8IUX4: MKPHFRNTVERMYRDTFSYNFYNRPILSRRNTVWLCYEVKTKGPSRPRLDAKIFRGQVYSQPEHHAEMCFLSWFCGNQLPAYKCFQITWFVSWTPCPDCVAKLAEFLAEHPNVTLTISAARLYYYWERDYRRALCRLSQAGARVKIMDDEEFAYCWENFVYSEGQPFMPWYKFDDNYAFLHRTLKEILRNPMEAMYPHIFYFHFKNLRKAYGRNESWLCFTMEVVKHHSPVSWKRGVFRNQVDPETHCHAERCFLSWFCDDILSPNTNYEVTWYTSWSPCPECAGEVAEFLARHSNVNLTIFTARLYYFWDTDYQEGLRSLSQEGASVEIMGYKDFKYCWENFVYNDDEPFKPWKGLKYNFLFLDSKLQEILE
UniProt P16157: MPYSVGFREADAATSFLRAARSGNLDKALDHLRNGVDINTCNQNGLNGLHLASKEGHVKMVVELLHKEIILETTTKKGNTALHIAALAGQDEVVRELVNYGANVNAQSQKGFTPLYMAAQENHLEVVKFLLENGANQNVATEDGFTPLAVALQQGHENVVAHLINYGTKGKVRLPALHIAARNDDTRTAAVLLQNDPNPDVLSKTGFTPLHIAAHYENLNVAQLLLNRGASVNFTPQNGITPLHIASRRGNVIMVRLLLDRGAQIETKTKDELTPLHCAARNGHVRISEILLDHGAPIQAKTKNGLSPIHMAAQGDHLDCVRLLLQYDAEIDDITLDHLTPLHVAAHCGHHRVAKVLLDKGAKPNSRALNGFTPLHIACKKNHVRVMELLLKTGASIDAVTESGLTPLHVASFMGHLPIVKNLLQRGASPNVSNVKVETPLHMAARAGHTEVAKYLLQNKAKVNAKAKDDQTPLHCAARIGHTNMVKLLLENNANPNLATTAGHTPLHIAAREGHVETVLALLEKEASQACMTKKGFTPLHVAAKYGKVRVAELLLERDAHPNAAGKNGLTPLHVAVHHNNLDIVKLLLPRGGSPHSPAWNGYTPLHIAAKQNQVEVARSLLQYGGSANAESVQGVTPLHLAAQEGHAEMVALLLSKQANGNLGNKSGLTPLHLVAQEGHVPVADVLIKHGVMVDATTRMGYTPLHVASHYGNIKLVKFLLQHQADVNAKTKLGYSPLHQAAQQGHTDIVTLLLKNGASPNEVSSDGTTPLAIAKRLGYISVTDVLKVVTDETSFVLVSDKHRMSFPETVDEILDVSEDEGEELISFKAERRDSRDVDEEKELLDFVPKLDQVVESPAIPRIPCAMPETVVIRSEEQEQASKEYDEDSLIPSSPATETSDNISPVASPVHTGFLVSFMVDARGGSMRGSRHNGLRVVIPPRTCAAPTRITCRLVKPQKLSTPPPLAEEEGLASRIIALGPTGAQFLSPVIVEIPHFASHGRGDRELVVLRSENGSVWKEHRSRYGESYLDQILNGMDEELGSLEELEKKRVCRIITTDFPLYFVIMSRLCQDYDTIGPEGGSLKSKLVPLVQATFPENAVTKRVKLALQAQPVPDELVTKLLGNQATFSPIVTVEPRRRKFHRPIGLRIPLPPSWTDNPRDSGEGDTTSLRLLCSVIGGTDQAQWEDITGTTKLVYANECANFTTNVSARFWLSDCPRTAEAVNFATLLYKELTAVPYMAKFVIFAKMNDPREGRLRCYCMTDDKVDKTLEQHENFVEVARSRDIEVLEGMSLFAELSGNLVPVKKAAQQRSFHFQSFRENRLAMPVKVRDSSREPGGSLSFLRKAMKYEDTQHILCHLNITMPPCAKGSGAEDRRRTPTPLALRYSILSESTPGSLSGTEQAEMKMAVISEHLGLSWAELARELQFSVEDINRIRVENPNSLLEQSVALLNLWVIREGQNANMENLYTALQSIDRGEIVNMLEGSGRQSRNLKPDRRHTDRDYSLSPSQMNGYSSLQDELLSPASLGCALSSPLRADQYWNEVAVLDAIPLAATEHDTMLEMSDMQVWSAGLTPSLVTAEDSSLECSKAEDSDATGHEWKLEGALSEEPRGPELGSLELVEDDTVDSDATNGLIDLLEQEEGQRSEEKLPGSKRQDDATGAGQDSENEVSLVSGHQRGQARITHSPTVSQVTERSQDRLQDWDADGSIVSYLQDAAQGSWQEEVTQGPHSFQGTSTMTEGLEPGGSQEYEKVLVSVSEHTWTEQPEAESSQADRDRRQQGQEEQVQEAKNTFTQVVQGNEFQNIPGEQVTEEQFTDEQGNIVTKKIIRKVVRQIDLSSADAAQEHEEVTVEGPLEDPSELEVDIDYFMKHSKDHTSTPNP
UniProt Q9Y5C1: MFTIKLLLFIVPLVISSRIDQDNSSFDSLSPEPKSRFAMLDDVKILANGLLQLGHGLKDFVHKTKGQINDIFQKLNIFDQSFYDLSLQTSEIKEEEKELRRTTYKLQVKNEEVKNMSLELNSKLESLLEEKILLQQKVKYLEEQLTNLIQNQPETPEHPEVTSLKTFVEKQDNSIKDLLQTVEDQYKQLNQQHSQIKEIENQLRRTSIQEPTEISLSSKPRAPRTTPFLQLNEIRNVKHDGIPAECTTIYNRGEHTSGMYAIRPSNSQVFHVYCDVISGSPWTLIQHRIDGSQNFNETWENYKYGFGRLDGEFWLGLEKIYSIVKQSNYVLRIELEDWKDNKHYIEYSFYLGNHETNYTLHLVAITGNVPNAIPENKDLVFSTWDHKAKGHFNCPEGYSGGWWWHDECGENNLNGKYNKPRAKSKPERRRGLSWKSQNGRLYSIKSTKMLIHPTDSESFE
UniProt P52565: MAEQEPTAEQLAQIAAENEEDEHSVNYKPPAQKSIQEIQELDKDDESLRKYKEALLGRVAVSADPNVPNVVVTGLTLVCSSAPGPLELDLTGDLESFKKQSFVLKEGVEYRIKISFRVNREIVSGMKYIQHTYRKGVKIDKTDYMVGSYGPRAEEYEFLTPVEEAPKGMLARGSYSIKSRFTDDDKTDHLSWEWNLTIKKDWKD
UniProt P07741: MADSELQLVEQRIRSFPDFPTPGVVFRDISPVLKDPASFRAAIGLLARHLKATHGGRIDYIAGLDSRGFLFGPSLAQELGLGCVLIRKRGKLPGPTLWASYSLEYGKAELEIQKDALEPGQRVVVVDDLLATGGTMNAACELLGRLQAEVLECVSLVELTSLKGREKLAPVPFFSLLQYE
UniProt Q9BQD7: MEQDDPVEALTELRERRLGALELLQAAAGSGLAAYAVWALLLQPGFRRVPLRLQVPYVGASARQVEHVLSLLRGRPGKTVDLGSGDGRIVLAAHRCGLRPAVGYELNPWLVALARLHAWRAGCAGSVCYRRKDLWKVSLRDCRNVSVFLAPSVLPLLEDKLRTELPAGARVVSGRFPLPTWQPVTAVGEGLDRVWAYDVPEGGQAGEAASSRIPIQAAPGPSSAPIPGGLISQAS

log2 fold change, inactive:
ANXA11 (UniProt P50995) -0.012, APMAP (UniProt Q9HDC9) -0.063, APEX1 (UniProt P27695) -0.017, ANP32B (UniProt Q92688) -0.022, APEH (UniProt P13798) -0.007, API5 isoform 2 (UniProt Q9BZZ5) -0.018, AP4B1 (UniProt Q9Y6B7) 0.007, APOC1 (UniProt P02654) 0.056, ANKH (UniProt Q9HCJ1) 0.111, APOBEC3C (UniProt Q9NRW3) 0.115, APIP (UniProt Q96GX9) -0.013, ANKFY1 isoform 4 (UniProt Q9P2R3) 0.084, ANKRD49 (UniProt Q8WVL7) -0.025, ANK3 (UniProt Q12955) 0.071, ARG2 (UniProt P78540) -0.038, ANXA7 (UniProt P20073) -0.034, APOBEC3F (UniProt Q8IUX4) 0.578, ANK1 isoform 14 (UniProt P16157) 0.278, ANGPTL3 (UniProt Q9Y5C1) 0.028, ARHGDIA (UniProt P52565) -0.024, ANAPC16 (UniProt Q96DE5) -0.005, ARHGAP17 (UniProt Q68EM7) 0.01, ANAPC4 isoform 3 (UniProt Q9UJX5) 0.005, AP3D1 isoform 5 (UniProt O14617) -0.012, ARF6 (UniProt P62330) -0.046, APOL1 isoform 2 (UniProt O14791) -0.201, APRT (UniProt P07741) -0.016, ARAP1 (UniProt Q96P48) 0.099, AP1M1 (UniProt Q9BXS5) 0, ANTKMT (UniProt Q9BQD7) 0.114, ARHGEF2 (UniProt Q92974) 0.151, ARIH1 (UniProt Q9Y4X5) -0.001
